Experimental data reported in PMC4459967.
Results are given in words; binding and its absence hold for the method and conditions named. In cells and extracts the contact can be indirect. A yes stands for co-enrichment or nearness to the bait. Other partners may have been found. Sequences can lack the tags named with a protein. Values belong to the binder of their own block, whether it stands above or below them.

Assays:
Assay in all cases: affinity purification with mass spectrometry; anti-Myc (MMS19-Myc) or anti-Flag (CIA1-Flag, CIA2-Flag) antibody-conjugated beads on extracts of flowers or seedlings of transgenic plants; CIA1-Flag and CIA2-Flag in the wild-type background, also done in the mms19 mutant background; lysis buffer 50 mM Tris-HCl pH 7.6, 150 mM NaCl, 5 mM MgCl2, 10% glycerol, 0.1% NP-40, 0.5 mM DTT; 4 °C; wild-type plants as control
[1] = target: T1, CIA1-Flag (Arabidopsis thaliana) (UniProt O80990)
T1 sequence: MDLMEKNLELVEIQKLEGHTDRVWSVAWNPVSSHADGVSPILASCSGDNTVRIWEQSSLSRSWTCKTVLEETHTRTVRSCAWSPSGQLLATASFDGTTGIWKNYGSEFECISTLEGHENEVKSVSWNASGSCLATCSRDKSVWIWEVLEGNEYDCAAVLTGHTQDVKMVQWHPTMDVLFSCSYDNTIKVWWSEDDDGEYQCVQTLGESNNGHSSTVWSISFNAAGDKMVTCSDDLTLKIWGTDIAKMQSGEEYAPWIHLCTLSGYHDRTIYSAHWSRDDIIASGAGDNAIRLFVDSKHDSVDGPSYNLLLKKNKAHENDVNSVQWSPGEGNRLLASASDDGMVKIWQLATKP

[2] = target: T2, CIA2-Flag (Arabidopsis thaliana) (UniProt Q9C9G6)
T2 sequence: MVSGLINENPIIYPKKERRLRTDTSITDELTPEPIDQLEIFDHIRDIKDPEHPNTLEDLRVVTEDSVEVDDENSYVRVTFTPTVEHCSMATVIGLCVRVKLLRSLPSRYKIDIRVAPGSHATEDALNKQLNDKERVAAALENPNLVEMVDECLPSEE

[3] = target: T3, MMS19-Myc (Arabidopsis thaliana) (UniProt Q0WVF8)
T3 sequence: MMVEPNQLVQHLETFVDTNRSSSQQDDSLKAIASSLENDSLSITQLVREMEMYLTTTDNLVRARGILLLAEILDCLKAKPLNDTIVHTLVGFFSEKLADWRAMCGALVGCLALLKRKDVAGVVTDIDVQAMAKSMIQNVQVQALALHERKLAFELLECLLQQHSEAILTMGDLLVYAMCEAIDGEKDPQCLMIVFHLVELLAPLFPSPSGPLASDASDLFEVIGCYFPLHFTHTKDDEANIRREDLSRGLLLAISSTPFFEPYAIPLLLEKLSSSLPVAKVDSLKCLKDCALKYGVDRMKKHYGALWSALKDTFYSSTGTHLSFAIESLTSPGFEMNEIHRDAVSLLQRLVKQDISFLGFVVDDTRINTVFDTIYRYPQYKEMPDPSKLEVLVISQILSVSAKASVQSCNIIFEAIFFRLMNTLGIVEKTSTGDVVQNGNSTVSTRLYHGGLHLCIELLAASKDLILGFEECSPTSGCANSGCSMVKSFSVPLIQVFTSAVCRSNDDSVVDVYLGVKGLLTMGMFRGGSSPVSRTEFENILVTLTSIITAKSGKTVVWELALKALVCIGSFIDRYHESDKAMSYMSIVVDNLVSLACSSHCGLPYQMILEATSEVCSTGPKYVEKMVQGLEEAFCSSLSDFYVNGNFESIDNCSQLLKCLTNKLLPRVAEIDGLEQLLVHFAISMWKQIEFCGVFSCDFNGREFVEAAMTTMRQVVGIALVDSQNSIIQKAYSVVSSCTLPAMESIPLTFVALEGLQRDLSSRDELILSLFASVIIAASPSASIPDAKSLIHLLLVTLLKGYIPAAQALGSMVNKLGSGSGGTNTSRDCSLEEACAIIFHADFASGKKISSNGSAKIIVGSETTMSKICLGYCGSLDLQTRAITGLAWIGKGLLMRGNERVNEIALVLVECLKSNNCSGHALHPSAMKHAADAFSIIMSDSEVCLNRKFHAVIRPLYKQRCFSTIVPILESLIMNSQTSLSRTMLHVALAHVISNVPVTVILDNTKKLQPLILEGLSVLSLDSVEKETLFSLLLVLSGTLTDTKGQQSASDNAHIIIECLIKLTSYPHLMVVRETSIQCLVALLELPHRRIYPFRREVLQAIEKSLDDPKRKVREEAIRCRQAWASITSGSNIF

- binding [1]: binds
B1: AT3G50845 (protein, UniProt A8MR89 1-154)
chain: MTLGLINANPVVQAKKEGLVRREDQYRDDGVDPLEIYDYVRDIRDPEHPYTLEQLRVVSEESVTVDDKLDRILITFTPTIQHCSMANIIGLCLRAKLKECLQLHYKVDIRVSPGSHADEVSVNKQLNDKERVVAALENPNLRQLVDECIYSDEI

- binding [1]: binds
- binding [2]: binds
B2: MMS19 (protein, UniProt Q0WVF8 1-1134)
chain: T3 sequence

- binding [3]: binds
B3: CIA1 (protein, UniProt O80990 1-352)
chain: T1 sequence

- binding [3]: binds
B4: AT5G63960, catalytic subunit of DNA polymerase δ (protein, UniProt Q9LVN7 1-1095)
chain: MNRSGISKKRPPPSNTPPPAGKHRATGDSTPSPAIGTLDDEFMMEEDVFLDETLLYGDEDEESLILRDIEERESRSSAWARPPLSPAYLSNSQSIIFQQLEIDSIIAESHKELLPGSSGQAPIIRMFGVTREGNSVCCFVHGFEPYFYIACPPGMGPDDISNFHQSLEGRMRESNKNAKVPKFVKRIEMVQKRSIMYYQQQKSQTFLKITVALPTMVASCRGILDRGLQIDGLGMKSFQTYESNILFVLRFMVDCDIVGGNWIEVPTGKYKKNARTLSYCQLEFHCLYSDLISHAAEGEYSKMAPFRVLSFDIECAGRKGHFPEAKHDPVIQIANLVTLQGEDHPFVRNVMTLKSCAPIVGVDVMSFETEREVLLAWRDLIRDVDPDIIIGYNICKFDLPYLIERAATLGIEEFPLLGRVKNSRVRVRDSTFSSRQQGIRESKETTIEGRFQFDLIQAIHRDHKLSSYSLNSVSAHFLSEQKEDVHHSIITDLQNGNAETRRRLAVYCLKDAYLPQRLLDKLMFIYNYVEMARVTGVPISFLLARGQSIKVLSQLLRKGKQKNLVLPNAKQSGSEQGTYEGATVLEARTGFYEKPIATLDFASLYPSIMMAYNLCYCTLVTPEDVRKLNLPPEHVTKTPSGETFVKQTLQKGILPEILEELLTARKRAKADLKEAKDPLEKAVLDGRQLALKISANSVYGFTGATVGQLPCLEISSSVTSYGRQMIEQTKKLVEDKFTTLGGYQYNAEVIYGDTDSVMVQFGVSDVEAAMTLGREAAEHISGTFIKPIKLEFEKVYFPYLLINKKRYAGLLWTNPQQFDKMDTKGIETVRRDNCLLVKNLVTESLNKILIDRDVPGAAENVKKTISDLLMNRIDLSLLVITKGLTKTGDDYEVKSAHGELAERMRKRDAATAPNVGDRVPYVIIKAAKGAKAYERSEDPIYVLQNNIPIDPNYYLENQISKPLLRIFEPVLKNASKELLHGSHTRSISITTPSNSGIMKFAKKQLSCVGCKVPISNGTLCASCKGREAELYCKNVSQVAELEEVFGRLWTQCQECQGSLHQDVLCTSRDCPIFYRRMKAQKDMAVARQQLDRWSF

- binding [2]: binds
- binding [3]: binds
B5: NAR1 (protein, UniProt Q94CL6 1-474)
chain: MSEKFSPTLRLGDLNDFIAPSQACVISLKDSKPIVKKSDRPQVVIAPKQQLEPVKISLKDCLACSGCITSAETVMLEKQSLDEFLSALSKGKDVVVSVSPQSRASLAVHYDISPLQVFKKLTTFLKSLGVKAVFDTSCSRDLVLIESCNEFVSRYKQANSDDGENSQSPLPVLSSACPGWICYAEKQLGSYVLPYVSSVKSPQQAIGAAIKHHLCQALGLRLHEVYHVTVMPCYDKKLEAARDDFVFDDGTQDNGDLKLTEVDSVLTTGEIMDLIKLKGVDFKDLEESPLDRVLTNVTEEGDLYGVAGSSGGYAETIFRHAAKALFGQTIEGPLEFKTLRNSDFREVTLQLEGKTVLKFALCYGFQNLQNIVRRVKTRKCDYQYVEIMACPAGCLNGGGQIKPKTGQSQKELIHSLEATYMNDTTLNTDPYQNPTAKRLFEEWLKEPGSNEAKKYLHTQYHPVVKSVTSQLNNW

- binding [3]: binds
B6: CIA2/AE7 (protein, UniProt Q9C9G6 1-157)
chain: T2 sequence
